Source: PMC4537497
No constants are given. Whether binding was seen depends on the method and setting. Binding seen in cells or lysates may run through a third protein. Some entries that bind do so weakly or less than the wild type. For some of these results: Where a sequence is shown, tags or fusion partners need not be part of it.

Protein sequences, listed by entry. Tags and fused reporters are not part of them. Lines headed by an entry give the natural chain unless they say otherwise; changes in a name come on top. Residues count along the entry.
UniProt P15381: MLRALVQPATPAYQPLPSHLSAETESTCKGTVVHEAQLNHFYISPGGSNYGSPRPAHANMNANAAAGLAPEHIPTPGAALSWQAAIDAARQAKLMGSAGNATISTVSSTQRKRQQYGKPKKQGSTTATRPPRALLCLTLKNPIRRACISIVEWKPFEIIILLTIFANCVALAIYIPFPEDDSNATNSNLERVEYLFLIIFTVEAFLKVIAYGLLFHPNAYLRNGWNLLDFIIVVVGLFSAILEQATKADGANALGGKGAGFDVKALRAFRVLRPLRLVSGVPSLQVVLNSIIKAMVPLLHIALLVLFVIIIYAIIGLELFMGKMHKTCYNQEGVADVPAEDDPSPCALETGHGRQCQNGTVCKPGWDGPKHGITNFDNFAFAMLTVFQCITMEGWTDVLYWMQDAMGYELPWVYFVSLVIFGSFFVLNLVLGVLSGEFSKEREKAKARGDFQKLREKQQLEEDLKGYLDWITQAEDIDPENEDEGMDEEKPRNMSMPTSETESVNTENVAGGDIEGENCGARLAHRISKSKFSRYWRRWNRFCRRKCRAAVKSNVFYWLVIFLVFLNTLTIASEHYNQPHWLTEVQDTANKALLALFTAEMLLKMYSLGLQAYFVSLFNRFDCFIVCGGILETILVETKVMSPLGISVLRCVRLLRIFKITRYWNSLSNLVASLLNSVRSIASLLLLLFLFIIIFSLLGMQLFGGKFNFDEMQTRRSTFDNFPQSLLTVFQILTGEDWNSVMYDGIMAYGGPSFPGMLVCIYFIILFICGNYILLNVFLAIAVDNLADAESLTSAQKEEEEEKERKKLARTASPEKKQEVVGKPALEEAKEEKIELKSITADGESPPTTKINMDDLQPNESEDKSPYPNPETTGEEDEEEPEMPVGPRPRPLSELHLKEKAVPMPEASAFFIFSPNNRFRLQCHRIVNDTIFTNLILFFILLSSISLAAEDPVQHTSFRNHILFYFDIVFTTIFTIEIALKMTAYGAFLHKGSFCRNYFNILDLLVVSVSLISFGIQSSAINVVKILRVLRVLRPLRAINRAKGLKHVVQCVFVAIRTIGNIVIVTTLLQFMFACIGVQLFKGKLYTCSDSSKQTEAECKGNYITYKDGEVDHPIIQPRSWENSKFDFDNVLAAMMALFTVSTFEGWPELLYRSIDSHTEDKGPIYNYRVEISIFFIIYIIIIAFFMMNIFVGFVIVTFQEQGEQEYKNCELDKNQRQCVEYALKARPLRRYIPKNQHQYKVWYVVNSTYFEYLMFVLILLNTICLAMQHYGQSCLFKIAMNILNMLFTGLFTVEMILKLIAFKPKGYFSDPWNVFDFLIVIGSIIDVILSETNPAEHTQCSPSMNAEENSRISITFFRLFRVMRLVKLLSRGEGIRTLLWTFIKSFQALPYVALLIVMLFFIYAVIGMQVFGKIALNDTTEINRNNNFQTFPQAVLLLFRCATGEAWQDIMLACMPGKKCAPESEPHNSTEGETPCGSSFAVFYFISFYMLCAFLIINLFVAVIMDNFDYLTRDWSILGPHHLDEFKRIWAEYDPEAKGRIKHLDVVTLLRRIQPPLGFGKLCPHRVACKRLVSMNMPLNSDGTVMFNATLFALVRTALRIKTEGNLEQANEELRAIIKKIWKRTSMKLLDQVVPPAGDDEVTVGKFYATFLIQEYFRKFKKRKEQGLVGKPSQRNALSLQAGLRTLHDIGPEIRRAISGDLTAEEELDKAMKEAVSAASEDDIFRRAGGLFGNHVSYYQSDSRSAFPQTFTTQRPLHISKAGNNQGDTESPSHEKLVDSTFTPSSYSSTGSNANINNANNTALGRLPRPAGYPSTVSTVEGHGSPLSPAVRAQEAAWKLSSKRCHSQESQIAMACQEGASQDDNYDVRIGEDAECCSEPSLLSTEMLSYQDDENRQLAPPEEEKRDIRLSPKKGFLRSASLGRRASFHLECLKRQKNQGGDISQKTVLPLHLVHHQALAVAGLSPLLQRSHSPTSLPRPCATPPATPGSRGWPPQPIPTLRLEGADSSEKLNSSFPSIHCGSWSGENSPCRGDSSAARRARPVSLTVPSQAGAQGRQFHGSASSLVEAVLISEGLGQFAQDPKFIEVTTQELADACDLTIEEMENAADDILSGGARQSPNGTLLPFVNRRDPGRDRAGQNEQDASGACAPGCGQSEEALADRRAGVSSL
UniProt P13806, residues 27-1106: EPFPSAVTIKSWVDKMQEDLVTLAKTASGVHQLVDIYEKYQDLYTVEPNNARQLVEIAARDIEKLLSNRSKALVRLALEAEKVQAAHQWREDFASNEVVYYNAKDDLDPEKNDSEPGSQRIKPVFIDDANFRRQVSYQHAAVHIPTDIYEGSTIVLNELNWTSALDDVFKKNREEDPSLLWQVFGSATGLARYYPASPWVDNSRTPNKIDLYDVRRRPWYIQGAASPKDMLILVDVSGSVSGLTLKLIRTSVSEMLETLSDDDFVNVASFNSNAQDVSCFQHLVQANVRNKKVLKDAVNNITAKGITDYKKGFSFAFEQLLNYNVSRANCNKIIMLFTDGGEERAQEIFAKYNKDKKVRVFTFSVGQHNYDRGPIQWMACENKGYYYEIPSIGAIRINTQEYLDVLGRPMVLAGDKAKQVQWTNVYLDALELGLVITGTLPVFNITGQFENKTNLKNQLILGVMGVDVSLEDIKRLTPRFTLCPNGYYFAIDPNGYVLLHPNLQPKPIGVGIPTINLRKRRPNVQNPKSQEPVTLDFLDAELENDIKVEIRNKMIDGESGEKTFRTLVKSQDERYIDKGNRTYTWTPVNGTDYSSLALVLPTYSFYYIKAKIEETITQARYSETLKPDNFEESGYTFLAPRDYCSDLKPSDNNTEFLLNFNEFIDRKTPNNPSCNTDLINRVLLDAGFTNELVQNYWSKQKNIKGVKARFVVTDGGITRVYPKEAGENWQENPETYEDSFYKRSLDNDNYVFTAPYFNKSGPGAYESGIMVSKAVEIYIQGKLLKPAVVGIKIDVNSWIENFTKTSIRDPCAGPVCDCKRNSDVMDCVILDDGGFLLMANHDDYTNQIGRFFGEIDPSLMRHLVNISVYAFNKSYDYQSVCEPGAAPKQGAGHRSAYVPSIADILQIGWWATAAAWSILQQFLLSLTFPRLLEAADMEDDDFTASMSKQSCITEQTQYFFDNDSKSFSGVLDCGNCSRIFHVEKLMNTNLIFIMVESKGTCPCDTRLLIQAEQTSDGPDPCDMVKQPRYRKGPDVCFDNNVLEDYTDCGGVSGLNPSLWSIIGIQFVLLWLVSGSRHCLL

Assays:
[1] = biological target: T1, S-tagged mouse USP2-45 (ubiquitin-specific protease 2-45) (mouse) (UniProt O88623); assay: pull-down; 1 mg lysate of transfected HEK-293 cells; S-tagged USP2-45 captured with biotinylated S-protein and streptavidin sepharose beads, 4 °C; beads washed five times with lysis buffer; Western blot; n = 3
T1 sequence: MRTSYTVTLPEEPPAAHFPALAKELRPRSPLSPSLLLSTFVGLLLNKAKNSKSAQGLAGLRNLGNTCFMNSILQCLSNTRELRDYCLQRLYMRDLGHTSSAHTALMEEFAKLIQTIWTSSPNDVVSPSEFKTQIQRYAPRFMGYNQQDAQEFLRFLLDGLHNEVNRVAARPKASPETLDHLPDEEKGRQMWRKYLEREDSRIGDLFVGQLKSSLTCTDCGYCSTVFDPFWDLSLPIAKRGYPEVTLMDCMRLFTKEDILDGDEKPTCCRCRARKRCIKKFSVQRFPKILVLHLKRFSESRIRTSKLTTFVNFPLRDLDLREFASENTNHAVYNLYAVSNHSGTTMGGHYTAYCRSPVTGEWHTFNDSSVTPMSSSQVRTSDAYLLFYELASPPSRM

[2] = biological target: Rabbit Cav1.2 (cardiac isoform α1c) (rabbit) (UniProt P15381); assay: pull-down; surface biotinylation of transfected HEK-293 cells (Sulfo-NHS-SS-Biotin, 30 min, 4 °C), lysis, streptavidin sepharose pull-down of biotinylated proteins and their binding partners from 1 mg total protein, 2 h at 4 °C; Western blot; control and USP2-45-transfected cells; n = 4

| binding [1] | Substance | binding [2] |
| --- | --- | --- |
| binds | Rabbit voltage-gated calcium channel accessory subunit α2δ-1a (from UniProt P13806 27-1106) |  |
| no binding | Rabbit voltage-gated calcium channel accessory subunit β2b (from UniProt P54288 1-632) | binds |
| no binding | Rabbit Cav1.2 (cardiac isoform α1c) (from UniProt P15381 1-2171) |  |
